Measurements published in PMC8493742.

By UniProt entry, the sequences of proteins in these tests, tags left out. Where a name states a change or a piece, a line headed by the entry shows the natural chain unless it says otherwise.
UniProt Q13887: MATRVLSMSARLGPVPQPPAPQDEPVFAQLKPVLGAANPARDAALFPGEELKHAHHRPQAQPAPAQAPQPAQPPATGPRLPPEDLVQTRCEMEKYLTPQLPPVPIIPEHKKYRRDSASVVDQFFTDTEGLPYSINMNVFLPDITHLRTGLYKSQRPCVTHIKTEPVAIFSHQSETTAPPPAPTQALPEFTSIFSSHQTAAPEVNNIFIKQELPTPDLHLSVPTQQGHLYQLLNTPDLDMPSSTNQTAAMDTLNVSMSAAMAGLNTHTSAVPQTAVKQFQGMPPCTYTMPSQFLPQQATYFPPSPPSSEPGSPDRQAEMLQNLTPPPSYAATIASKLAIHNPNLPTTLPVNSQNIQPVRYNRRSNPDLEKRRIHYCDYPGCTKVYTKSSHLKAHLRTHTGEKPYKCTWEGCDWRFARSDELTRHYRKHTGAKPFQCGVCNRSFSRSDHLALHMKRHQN
UniProt P06748: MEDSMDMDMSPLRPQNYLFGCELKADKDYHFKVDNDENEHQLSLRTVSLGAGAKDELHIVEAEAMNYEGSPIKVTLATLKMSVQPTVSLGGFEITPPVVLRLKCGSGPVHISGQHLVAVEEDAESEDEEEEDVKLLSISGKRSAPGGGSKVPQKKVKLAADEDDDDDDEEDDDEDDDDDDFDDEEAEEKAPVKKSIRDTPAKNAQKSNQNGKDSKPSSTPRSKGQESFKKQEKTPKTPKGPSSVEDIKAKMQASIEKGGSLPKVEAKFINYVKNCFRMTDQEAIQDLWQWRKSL

Target: Kruppel-like factor 5 (KLF5) (human (endogenous in OCI-AML3)) (UniProt Q13887)
Test: co-IP; endogenous proteins in sonicated cell lysates in IP buffer (20 mM Tris-Cl, 150 mM NaCl, 1 mM EDTA, 1 mM EGTA, 1% Triton X-100, pH 7.5); specific antibodies or normal IgG with protein A/G beads overnight at 4 °C; western blot; also in cells with shNPM1, shHOTAIRM1 or HOTAIRM1 overexpression

## NPM1 mutation type A (mutant nucleophosmin) (from UniProt P06748)
  binding: no binding

Results are given in words; binding and its absence hold for the method and conditions named. Binding seen in cells or lysates may run through a third protein.
